These are yes or no findings as the source states them, for the method shown. In cells and extracts the contact can be indirect. Here binding means that the protein was enriched with, or labelled near, the bait; the list need not be complete.

Amino acid sequences for entries named in this document (tags omitted).
UniProt P32569: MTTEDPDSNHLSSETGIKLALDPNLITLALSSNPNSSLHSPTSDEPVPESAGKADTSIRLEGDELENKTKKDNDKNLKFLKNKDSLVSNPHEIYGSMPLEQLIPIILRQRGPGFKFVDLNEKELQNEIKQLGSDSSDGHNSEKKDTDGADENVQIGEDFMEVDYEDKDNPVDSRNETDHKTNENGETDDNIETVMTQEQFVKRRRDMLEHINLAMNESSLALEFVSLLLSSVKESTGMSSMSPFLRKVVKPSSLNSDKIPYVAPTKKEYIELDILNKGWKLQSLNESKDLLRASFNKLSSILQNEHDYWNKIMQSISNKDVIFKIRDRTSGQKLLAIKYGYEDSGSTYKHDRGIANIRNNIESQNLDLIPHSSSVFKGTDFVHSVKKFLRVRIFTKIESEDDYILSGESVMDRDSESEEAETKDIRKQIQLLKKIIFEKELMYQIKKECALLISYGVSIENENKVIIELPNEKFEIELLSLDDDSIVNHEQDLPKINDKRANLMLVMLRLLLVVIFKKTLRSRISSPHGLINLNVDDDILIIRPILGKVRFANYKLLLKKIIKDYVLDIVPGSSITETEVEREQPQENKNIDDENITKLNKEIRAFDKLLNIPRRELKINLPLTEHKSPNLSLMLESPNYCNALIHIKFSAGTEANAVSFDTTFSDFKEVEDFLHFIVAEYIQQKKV

In this experiment the target is Med17-HA (S. cerevisiae (endogenous in S288c)) (UniProt P32569). Nature of the experiment: affinity purification with mass spectrometry; CoIP of Med17-HA on anti-HA magnetic beads from cryoground yeast lysate, 2 h at 4 °C; 20 mM HEPES pH 7.5, 300 mM KOAc, 10% glycerol, 0.01% NP-40, 6 mM MnSO4, 1 mM DTT, Cyanase nuclease; parallel control CoIP from 15N-labelled wild type cells, mixing after purification (MAP); GeLC-MS/MS, three biological replicates.

B1: Mak5 (protein, UniProt P38112 1-773)
chain: MGKKRAPQKGKTVTKPQEIIVDESKLNWKPVDIPDTLDDFGGFYGLEEIDGVDVKVVDGKVTFVTKKDSKVLKDSNKEKVGDDQESVENESGSDSESELLEFKNLDDIKEGELSAASYSSSDEDEQGNIESSKLTDPSEDVDEDVDEDVLKENVFNKDINIDDISPVNLPEWTNLAPLSMTILQSLQNLNFLRPTEIQKKSIPVIMQGVDVMGKASTGSGKTLAYGIPIVEKLISNFSQKNKKPISLIFTPTRELAHQVTDHLKKICEPVLAKSQYSILSLTGGLSIQKQQRLLKYDNSGQIVIATPGRFLELLEKDNTLIKRFSKVNTLILDEADRLLQDGHFDEFEKIIKHLLVERRKNRENSEGSSKIWQTLIFSATFSIDLFDKLSSSRQVKDRRFKNNEDELNAVIQHLMSKIHFNSKPVIIDTNPESKVSSQIKESLIECPPLERDLYCYYFLTMFPGTTLIFCNAIDSVKKLTVYLNNLGIPAFQIHSSMTQKNRLKSLERFKQQSAKQKTINHSNPDSVQLSTVLIASDVAARGLDIPGVQHVIHYHLPRSTDIYIHRSGRTARAGSEGVSAMICSPQESMGPLRKLRKTLATKNSVSTDLNSRSTNRKPIKWQNTVPLLPIETDILSQLRERSRLAGELADHEIASNSLRKDDNWLKKAADELGIDVDSDEDDISKSNSDTFLLKNKNKKMQKTINKDKVKAMRATLNELLSVPIRKDRRQKYLTGGLVNLADNLVKKRGHNSIIGHEKTNALETLKKKKKRNN
B1: the binding entry is on record as “binds”.

B2: Nop2 (protein, UniProt P40991 1-618)
chain: MGSRRHKNKQAAPPTLEEFQARKEKKANRKLEKGKRPSTTQGDEVSDRKKKKSKPFKKSRKEEEEVVEEDKDLPEVDLEELSKARKSLFDDEEDDDEAGLVDEELKDEFDLEQEYDYDEDEDNDAHPIFSDDDDEADLEELNAQNMEALSKKLDEEEAEEAEEAEMELVEAENMQPRADILPTEEQEEMMAQETPNLTSTRTRMIEIVKVLENFKTLGAEGRSRGEYVDRLLKDICEYFGYTPFLAEKLFNLFSPAEAMEFFEANEIARPITIRTNTLKTRRRDLAQTLVNRGVNLQPIGSWTKVGLQIFDSQVPIGATPEYLAGHYILQAASSFLPVIALDPHENERILDMAAAPGGKTTYISAMMKNTGCVFANDANKSRTKSLIANIHRLGCTNTIVCNYDAREFPKVIGGFDRILLDAPCSGTGVIGKDQSVKVSRTEKDFIQIPHLQKQLLLSAIDSVDCNSKHGGVIVYSTCSVAVEEDEAVIDYALRKRPNVKLVDTGLAIGKEAFTSYRGKKFHPSVKLARRYYPHTYNVDGFFVAKFQKIGPSSFDDNQASAKEKETAARKEALEEGIIHSDFATFEDEEDDKYIEKSVKNNLLKKGVNPKAKRPSNEK
B2: the binding result is “binds”.

B3: Noc3 (protein, UniProt Q07896 1-663)
chain: MAKRNRSQFRIQERTAKKRKHEDSLLEGNVFQNAPEDMDENTIYSAKGSSWDEEEQDYEMVPRKNRSDTSNLVEGLPIKVNGKVERKLHKAQEKPKDDDEEDEDSNDSSEDDEGPNEEQEAEAKEDEPDTEEKILQLKEDIADLVTKVMEEPEENTAALGRLCKMVESKNPNTCKFSMLALVPVFKSIIPGYRIRPLTETEKKEKVSKEVSKLRNFEQALVYNYKNYVGRLQSLSKTPSNAAPIQVSLGILATQAAKELISTASHFNFRTDIFTLLLRRICKPRISTDPTSIQIIQTFETLLNEDEEGSISFEILRIFNKILKTRNFNIEESVLNMLLSLDVLHDYDPNTKLKGNVSAPKLKKKDRVHLSKKQRKARKEMQQIEEEMRNAEQAVSAEERERNQSEILKIVFTIYLNILKNNAKTLIGSVLEGLTKFGNMANFDLLGDFLEVMKELISDTEFDNLSSAEVRKALLCIVSAFSLISNTQYMKVNVDLSKFVDGLYALLPYICLDADIELSYRSLRLADPLNNEIIKPSVNVSTKAELLLKALDHVFFRSKSGTKERATAFTKRLYMCISHTPEKTSIAILKFIDKLMNRYPEISGLYSSEDRIGNGHFIMEADNPSRSNPEAATLWDNALLEKHYCPVVTKGLRSLSSRSKECSK
As for B3, the binding result is “binds”.
